These are yes or no findings as the source states them, for the method shown.
Biological target: T1, SLF1^tBRCT (tandem BRCT domain of SLF1, residues 6-208) (human) (UniProt Q9BQI6)
T1 sequence: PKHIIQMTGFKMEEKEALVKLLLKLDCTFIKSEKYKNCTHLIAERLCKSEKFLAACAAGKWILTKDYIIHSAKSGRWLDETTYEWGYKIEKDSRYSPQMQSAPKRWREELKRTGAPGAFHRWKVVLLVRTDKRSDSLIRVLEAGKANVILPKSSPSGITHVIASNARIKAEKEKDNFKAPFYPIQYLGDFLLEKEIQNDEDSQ
Assay: SEC; SLF1^ARD and SLF1^tBRCT 2:1 molar ratio, 20 and 10 μM; on ice 60 mins; 20 mM Tris pH 8.0, 150 mM NaCl; fractions on Coomassie gels; both purified

binding: no binding (tested: 20 and 10 μM)
Substance: SLF1^ARD (ankyrin repeat domain of SLF1, residues 802-934), His-tag cleaved (from UniProt Q9BQI6 802-934) (domain or fragment)

— PMC11551741 (Nucleic Acids Research, 2024)
